Assay results published in paper PMC9271913.
No constants are given. Whether binding was seen depends on the method and setting. In cells and extracts the contact can be indirect. Some entries that bind do so weakly or less than the wild type.

The chains behind the UniProt entries cited, without tags or fusion partners. Residues count along the entry.
UniProt P62812, residues 28-455: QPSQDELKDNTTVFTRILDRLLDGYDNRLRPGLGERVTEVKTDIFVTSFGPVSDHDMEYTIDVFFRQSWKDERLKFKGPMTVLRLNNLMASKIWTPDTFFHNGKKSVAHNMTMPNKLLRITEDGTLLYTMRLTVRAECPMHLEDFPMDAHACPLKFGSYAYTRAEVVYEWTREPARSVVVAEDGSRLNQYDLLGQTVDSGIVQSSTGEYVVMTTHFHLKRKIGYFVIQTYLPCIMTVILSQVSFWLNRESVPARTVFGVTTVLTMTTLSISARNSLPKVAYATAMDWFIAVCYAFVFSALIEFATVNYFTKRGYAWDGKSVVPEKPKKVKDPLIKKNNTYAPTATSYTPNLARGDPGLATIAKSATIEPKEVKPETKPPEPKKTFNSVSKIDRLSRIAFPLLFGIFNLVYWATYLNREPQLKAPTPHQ
UniProt Q8CFI0: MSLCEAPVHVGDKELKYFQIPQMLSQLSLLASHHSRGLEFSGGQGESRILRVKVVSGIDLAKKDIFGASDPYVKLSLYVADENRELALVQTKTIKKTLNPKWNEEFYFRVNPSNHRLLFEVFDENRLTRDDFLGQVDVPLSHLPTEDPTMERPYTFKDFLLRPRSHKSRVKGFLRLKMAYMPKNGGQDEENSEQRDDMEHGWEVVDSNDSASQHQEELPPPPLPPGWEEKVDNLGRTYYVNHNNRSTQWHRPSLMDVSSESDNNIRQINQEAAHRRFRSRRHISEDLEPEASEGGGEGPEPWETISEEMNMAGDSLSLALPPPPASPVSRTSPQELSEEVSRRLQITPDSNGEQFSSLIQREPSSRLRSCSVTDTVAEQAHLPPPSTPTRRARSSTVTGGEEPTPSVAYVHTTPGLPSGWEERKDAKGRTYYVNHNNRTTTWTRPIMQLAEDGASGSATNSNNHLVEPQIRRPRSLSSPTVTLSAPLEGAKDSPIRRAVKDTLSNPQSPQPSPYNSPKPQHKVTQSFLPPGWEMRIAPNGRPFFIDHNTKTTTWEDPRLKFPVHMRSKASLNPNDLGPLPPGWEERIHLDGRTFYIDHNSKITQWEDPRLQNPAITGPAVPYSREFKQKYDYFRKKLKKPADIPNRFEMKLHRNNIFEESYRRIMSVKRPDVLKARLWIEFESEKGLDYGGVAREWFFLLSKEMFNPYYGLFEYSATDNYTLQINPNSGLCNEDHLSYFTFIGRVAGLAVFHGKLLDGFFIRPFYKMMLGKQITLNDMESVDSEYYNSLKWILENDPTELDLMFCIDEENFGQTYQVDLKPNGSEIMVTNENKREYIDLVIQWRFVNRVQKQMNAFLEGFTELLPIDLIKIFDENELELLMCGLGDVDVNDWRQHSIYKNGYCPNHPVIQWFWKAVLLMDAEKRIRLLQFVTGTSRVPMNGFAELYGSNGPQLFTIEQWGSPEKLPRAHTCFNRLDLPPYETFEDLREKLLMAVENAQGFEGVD

T1: Retention in endoplasmic reticulum 1 (Rer1), mouse (mouse (endogenous in brain)) (UniProt Q9CQU3)
T1 sequence: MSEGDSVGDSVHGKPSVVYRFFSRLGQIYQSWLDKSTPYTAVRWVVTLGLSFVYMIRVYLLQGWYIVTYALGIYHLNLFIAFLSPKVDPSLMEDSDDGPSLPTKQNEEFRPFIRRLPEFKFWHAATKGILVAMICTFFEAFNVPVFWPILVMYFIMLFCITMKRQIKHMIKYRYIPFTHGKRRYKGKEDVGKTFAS

B1: Retention in endoplasmic reticulum 1 (Rer1), mouse (protein, UniProt Q9CQU3 1-196)
chain: T1 sequence

Experiments:
Experiment in all cases: co-IP; endogenous proteins in brain lysates (gentle RIPA lysis buffer) of Nedd4-2+/- and wild-type mice, with or without PTZ or Tg (2 mg/kg, 6 h); 3 ug anti-NEDD4-2, anti-RER1 or anti-GABRA1 on Protein A/G magnetic beads, 4°C overnight; immunoblot
[1] = target: T1, Retention in endoplasmic reticulum 1 (Rer1), mouse (mouse (endogenous in brain))
[2] = target: Gamma-aminobutyric acid receptor subunit alpha-1 (mouse (endogenous in brain)) (UniProt P62812)
[3] = target: Neural precursor cell expressed developmentally downregulated gene 4-2 (Nedd4-2), mouse (mouse (endogenous in brain)) (UniProt Q8CFI0)

| Molecule | binding [1] | binding [2] | binding [3] |
| --- | --- | --- | --- |
| Neural precursor cell expressed developmentally downregulated gene 4-2 (Nedd4-2), mouse (from UniProt Q8CFI0 1-1004) | binds | – | – |
| B1 | – | binds | binds |
